{"source": "PubChem BioAssay AID1259308 (NCATS, 2017)", "purpose": "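Knock-downs that increase output of a recombinant reporter protein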 (primary screen)", "cell system": "human HEK293 embryonic kidney cells stably expressing firefly luciferase (HEK-CMV-Luc2-Hygro)", "reagent": "single siRNA against human genes, 0.8 pmol siRNA per well", "duration": "72 h", "measured": "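Luciferase light (ONE-Glo) measured on one replicate plate set and viability (CellTiter-Glo) on the other, scaled to a negative control siRNA, with robust z-scores and luciferase per cell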", "reading the numbers": "total luciferase, z-score: higher = more reporter protein produced", "hit rule": "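Active when the median/MAD z-score for overall luciferase is greater than 3; a gene was taken forward for validation with new siRNAs if at least two of its three siRNAs passed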", "calls": "active = raised luciferase; inactive = no rise", "note": "The whole screen tested about 59,000 reagents; this is a part drawn at random. In the full data, about 1,510 (2.6%) were called active. 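Calls use total luciferase alone and ignore viability, so some active siRNAs may act by altering cell number.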 A number with no mark means an inactive call. Reagents against one gene are numbered here. Not all columns of the deposit are shown."}
{"Target gene": "ECHDC3 (enoyl-CoA hydratase domain containing 3)", "reagent": 1, "total luciferase, z-score": "6.52 (active)"}
{"Target gene": "ECHDC3 (enoyl-CoA hydratase domain containing 3)", "reagent": 2, "total luciferase, z-score": 0.898}
{"Target gene": "ECHDC3 (enoyl-CoA hydratase domain containing 3)", "reagent": 3, "total luciferase, z-score": 1.19}
{"Target gene": "UBE2L6 (ubiquitin conjugating enzyme E2 L6)", "reagent": 1, "total luciferase, z-score": -0.253}
{"Target gene": "UBE2L6 (ubiquitin conjugating enzyme E2 L6)", "reagent": 2, "total luciferase, z-score": 1.32}
{"Target gene": "UBE2L6 (ubiquitin conjugating enzyme E2 L6)", "reagent": 3, "total luciferase, z-score": -2.32}
{"Target gene": "CXCR1 (C-X-C motif chemokine receptor 1)", "reagent": 1, "total luciferase, z-score": 0.245}
{"Target gene": "CXCR1 (C-X-C motif chemokine receptor 1)", "reagent": 2, "total luciferase, z-score": -0.434}
{"Target gene": "CXCR1 (C-X-C motif chemokine receptor 1)", "reagent": 3, "total luciferase, z-score": -0.173}
{"Target gene": "SOS1 (SOS Ras/Rac guanine nucleotide exchange factor 1)", "reagent": 1, "total luciferase, z-score": 0.487}
{"Target gene": "SOS1 (SOS Ras/Rac guanine nucleotide exchange factor 1)", "reagent": 2, "total luciferase, z-score": -0.806}
{"Target gene": "SOS1 (SOS Ras/Rac guanine nucleotide exchange factor 1)", "reagent": 3, "total luciferase, z-score": -0.277}

2 neighbouring records from above, quoted:
{"Target gene": "UBE2L6 (ubiquitin conjugating enzyme E2 L6)", "reagent": 1, "total luciferase, z-score": -0.253}
{"Target gene": "UBE2L6 (ubiquitin conjugating enzyme E2 L6)", "reagent": 2, "total luciferase, z-score": 1.32}
